Data from publication PMC12779560.
These are yes or no findings as the source states them, for the method shown. In cells and extracts the contact can be indirect. Some entries that bind do so weakly or less than the wild type. For some of these results: Tags and fused reporters may be left off the sequences shown. Blank lines part the entries; values can stand above or below the molecule they belong to.

Sequences of proteins named here, by UniProt entry; tags and fusion partners are left off. Residues count along the entry.
UniProt Q96PQ1, residues 19-595: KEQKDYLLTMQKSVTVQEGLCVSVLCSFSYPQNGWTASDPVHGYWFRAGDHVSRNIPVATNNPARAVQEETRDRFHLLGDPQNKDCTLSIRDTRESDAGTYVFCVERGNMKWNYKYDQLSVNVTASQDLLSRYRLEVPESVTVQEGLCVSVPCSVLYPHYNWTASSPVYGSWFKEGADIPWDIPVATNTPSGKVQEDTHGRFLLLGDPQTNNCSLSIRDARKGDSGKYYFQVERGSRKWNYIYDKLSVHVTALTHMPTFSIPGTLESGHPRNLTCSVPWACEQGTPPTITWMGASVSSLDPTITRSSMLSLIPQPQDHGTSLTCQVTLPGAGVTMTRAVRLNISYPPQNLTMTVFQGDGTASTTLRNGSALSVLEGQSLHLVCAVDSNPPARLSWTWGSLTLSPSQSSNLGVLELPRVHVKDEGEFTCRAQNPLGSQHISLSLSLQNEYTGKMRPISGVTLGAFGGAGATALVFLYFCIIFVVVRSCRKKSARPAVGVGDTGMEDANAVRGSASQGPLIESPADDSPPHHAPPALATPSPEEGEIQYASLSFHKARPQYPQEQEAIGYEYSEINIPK
UniProt Q9NRS4: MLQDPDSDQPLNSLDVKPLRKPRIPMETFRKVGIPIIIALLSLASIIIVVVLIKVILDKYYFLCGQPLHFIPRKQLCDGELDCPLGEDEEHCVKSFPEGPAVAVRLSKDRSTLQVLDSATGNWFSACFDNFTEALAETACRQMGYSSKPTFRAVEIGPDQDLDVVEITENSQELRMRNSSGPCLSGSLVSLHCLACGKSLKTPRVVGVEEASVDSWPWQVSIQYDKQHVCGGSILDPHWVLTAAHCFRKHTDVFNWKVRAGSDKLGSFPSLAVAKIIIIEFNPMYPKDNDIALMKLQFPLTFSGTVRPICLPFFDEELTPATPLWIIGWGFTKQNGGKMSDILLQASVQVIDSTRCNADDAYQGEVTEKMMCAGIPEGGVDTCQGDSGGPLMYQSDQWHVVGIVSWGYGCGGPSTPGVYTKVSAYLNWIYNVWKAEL

Assays:
[1] = target: SIGLEC12-FL–FLAG (transfected into 293T cells) (human) (UniProt Q96PQ1); test: co-IP; 293T cells cotransfected with SIGLEC12-FL–FLAG and TMPRSS4–HA (plasmids 1:1) for 24 h; anti-FLAG immunoprecipitation; immunoblot
[2] = target: SIGLEC12–FLAG (HT-29-SIGLEC12-KO-SIGLEC12–FLAG stable cell line) (human) (UniProt Q96PQ1); test: co-IP; HT-29-SIGLEC12-KO-SIGLEC12–FLAG stable cells treated with TSE (indicated times or 4 h), with or without NSA (2 μM) cotreatment; SIGLEC12–FLAG immunoprecipitated on anti-FLAG beads (eluted with FLAG peptide in Fig. 3h); immunoblot
[3] = target: SIGLEC12 (sialic-acid-binding Ig-like lectin 12) (human (endogenous in HT-29)) (UniProt Q96PQ1); test: co-IP; HT-29 cells treated with TSE for the indicated times; endogenous proteins; lysate incubated with specific primary antibody overnight at 4 °C, then with protein A/G-magnetic beads for 4 h at 4 °C; IgG control antibody lane; immunoblot
[4] = target: SIGLEC12–FLAG (transfected into HeLa-RIPK3–HA cells) (human) (UniProt Q96PQ1); test: co-IP; HeLa-RIPK3–HA cells transfected with SIGLEC12–FLAG for 16 h and treated with TSE for the indicated times; immunoprecipitation and immunoblot

binding [1]: binds
Molecule: TMPRSS4–HA (from UniProt Q9NRS4 1-437) (enzyme)

binding [2]: binds | binding [3]: binds
B1: MLKL (protein, UniProt Q8NB16 1-471)
chain: MENLKHIITLGQVIHKRCEEMKYCKKQCRRLGHRVLGLIKPLEMLQDQGKRSVPSEKLTTAMNRFKAALEEANGEIEKFSNRSNICRFLTASQDKILFKDVNRKLSDVWKELSLLLQVEQRMPVSPISQGASWAQEDQQDADEDRRAFQMLRRDNEKIEASLRRLEINMKEIKETLRQYLPPKCMQEIPQEQIKEIKKEQLSGSPWILLRENEVSTLYKGEYHRAPVAIKVFKKLQAGSIAIVRQTFNKEIKTMKKFESPNILRIFGICIDETVTPPQFSIVMEYCELGTLRELLDREKDLTLGKRMVLVLGAARGLYRLHHSEAPELHGKIRSSNFLVTQGYQVKLAGFELRKTQTSMSLGTTREKTDRVKSTAYLSPQELEDVFYQYDVKSEIYSFGIVLWEIATGDIPFQGCNSEKIRKLVAVKRQQEPLGEDCPSELREIIDECRAHDPSVRPSVDEILKKLSTFSK

binding [4]: binds
B2: MLKL (in HeLa-RIPK3–HA cells) (protein, UniProt Q8NB16 1-471)
chain: B1 chain
